Experimental data as given in publication PMC11099142.
No constants are given. Whether binding was seen depends on the method and setting. In cells and extracts the contact can be indirect. Some binding calls cover weakened binding; strength is not graded here.

Sequences of proteins named here, by UniProt entry; tags and fusion partners are left off. Residues count along the entry.
UniProt P08069, residues 31-1367: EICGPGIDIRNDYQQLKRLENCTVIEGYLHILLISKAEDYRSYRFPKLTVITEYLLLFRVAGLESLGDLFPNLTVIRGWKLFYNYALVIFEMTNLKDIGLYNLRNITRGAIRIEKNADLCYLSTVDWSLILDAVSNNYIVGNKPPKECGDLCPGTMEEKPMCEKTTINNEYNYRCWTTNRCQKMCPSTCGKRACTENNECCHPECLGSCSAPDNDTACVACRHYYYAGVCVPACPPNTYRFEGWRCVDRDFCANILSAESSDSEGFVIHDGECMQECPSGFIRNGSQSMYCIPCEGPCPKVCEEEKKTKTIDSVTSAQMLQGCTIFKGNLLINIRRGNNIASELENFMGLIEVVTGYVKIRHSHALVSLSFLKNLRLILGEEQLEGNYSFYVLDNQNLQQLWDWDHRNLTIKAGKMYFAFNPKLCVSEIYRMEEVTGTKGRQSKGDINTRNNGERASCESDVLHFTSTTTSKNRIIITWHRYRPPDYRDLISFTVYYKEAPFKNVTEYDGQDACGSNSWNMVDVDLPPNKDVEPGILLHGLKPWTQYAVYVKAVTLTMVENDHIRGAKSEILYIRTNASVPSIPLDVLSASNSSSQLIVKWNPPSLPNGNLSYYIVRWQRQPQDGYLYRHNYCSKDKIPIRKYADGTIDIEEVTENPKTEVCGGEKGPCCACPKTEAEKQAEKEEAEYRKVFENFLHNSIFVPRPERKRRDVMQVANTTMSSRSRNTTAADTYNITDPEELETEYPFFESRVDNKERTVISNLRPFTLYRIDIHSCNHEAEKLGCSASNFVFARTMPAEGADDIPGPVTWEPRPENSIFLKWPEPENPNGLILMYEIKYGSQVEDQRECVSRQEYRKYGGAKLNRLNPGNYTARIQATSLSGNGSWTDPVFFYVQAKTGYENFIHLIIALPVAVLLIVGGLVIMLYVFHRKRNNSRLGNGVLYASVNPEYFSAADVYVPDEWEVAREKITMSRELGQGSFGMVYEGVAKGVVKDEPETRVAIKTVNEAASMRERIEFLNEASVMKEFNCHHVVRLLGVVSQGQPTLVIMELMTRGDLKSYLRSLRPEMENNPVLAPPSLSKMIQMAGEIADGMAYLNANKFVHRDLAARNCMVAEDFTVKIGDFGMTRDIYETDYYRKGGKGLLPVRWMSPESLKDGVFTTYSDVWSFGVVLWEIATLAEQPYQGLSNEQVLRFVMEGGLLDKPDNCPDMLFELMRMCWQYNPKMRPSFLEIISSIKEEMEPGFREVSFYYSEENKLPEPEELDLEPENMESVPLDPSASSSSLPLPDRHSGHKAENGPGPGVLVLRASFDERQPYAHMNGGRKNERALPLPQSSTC

Legend:
[1] = molecular target: Insulin-like Growth Factors 1 Receptor (IGF1R) (human (endogenous in TOV-112D)) (UniProt P08069); assay: co-IP; TOV-112D PT-res ITGA6WT cell lysates (ITGA6KO cells as control) in HNTG buffer; protein A or G agarose; western blot
[2] = molecular target: Insulin-like Growth Factors 1 Receptor (IGF1R) (human (endogenous in TOV-112D)) (UniProt P08069); assay: co-IP; TOV-112D parental (PT-sen) cells, not conditioned; lysates in HNTG buffer; protein A or G agarose; western blot
[3] = molecular target: Insulin-like Growth Factors 1 Receptor (IGF1R) (human (endogenous in TOV-112D)) (UniProt P08069); assay: co-IP; TOV-112D parental (PT-sen) cells incubated with conditioned medium of TOV-112D PT-res WT cells; lysates in HNTG buffer; western blot

B1: Integrin α6 (ITGA6) (receptor, UniProt P23229 24-1130)
chain: FNLDTREDNVIRKYGDPGSLFGFSLAMHWQLQPEDKRLLLVGAPRAEALPLQRANRTGGLYSCDITARGPCTRIEFDNDADPTSESKEDQWMGVTVQSQGPGGKVVTCAHRYEKRQHVNTKQESRDIFGRCYVLSQNLRIEDDMDGGDWSFCDGRLRGHEKFGSCQQGVAATFTKDFHYIVFGAPGTYNWKGIVRVEQKNNTFFDMNIFEDGPYEVGGETEHDESLVPVPANSYLGLLFLTSVSYTDPDQFVYKTRPPREQPDTFPDVMMNSYLGFSLDSGKGIVSKDEITFVSGAPRANHSGAVVLLKRDMKSAHLLPEHIFDGEGLASSFGYDVAVVDLNKDGWQDIVIGAPQYFDRDGEVGGAVYVYMNQQGRWNNVKPIRLNGTKDSMFGIAVKNIGDINQDGYPDIAVGAPYDDLGKVFIYHGSANGINTKPTQVLKGISPYFGYSIAGNMDLDRNSYPDVAVGSLSDSVTIFRSRPVINIQKTITVTPNRIDLRQKTACGAPSGICLQVKSCFEYTANPAGYNPSISIVGTLEAEKERRKSGLSSRVQFRNQGSEPKYTQELTLKRQKQKVCMEETLWLQDNIRDKLRPIPITASVEIQEPSSRRRVNSLPEVLPILNSDEPKTAHIDVHFLKEGCGDDNVCNSNLKLEYKFCTREGNQDKFSYLPIQKGVPELVLKDQKDIALEITVTNSPSNPRNPTKDGDDAHEAKLIATFPDTLTYSAYRELRAFPEKQLSCVANQNGSQADCELGNPFKRNSNVTFYLVLSTTEVTFDTPDLDINLKLETTSNQDNLAPITAKAKVVIELLLSVSGVAKPSQVYFGGTVVGEQAMKSEDEVGSLIEYEFRVINLGKPLTNLGTATLNIQWPKEISNGKWLLYLVKVESKGLEKVTCEPQKEINSLNLTESHNSRKKREITEKQIDDNRKFSLFAERKYQTLNCSVNVNCVNIRCPLRGLDSKASLILRSRLWNSTFLEEYSKLNYLDILMRAFIDVTAAAENIRLPNAGTQVRVTVFPSKTVAQYSGVPWWIILVAILAGILMLALLVFILWKCGFFKRSRYDDSVPRYHAVRIRKEEREIKDEKYIDNLEKKQWITKWNENESYS
- binding [1]: binds
- binding [2]: binds weakly
- binding [3]: binds
